## Library screening results

The values are deposited in ChEMBL (CHEMBL3988442, “University of Dundee, Small-Polar-MMV Screening Library” (2021)).

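Viability assay of Plasmodium falciparum sporozoites; the read-out is not stated. The concentration is filed as 10 mM, unlikely as a test dose, so the dose is not known. The record gives no direction; compounds that gave an IC50 in retests scored well above the rest, so higher reads as lower viability. Strong results were mostly tested again. Of about 34,000 compounds tested this way, about 280 (0.84%) reached 50% or more in at least one test.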

Results are given as percent effect. How 0% and 100% were set is not recorded. Most values in the screen are low, and negative values occur. The compounds are a random part of those screened. Two or more numbers in one place are separate tests of the same structure; such repeats can differ widely.

Compound: [H][C@]12CC[C@](O)(CC1)C(CN1CCOCC1)N2C(=O)N1CCOCC1 (some centres not stated)
Percent Effect: 5.072

Compound: COc1cccc(N2C(=O)CC3(CCNCC3)C2=O)c1.Cl
Percent Effect: -6.042

Compound: Cc1nc(NC(=O)NC2CC(=O)N(C(C)C)C2)nn1C(C)C (configuration not stated)
Percent Effect: -11.94

Compound: CN(Cc1ccc(F)cc1)CC1(O)CCN(C(=O)c2cccs2)C1 (configuration not stated)
Percent Effect: 6.596

Compound: Cc1nc(-c2ccsc2)ccc1C(=O)NC(C)CN1CCOCC1 (configuration not stated)
Percent Effect: -1.092

Compound: Cc1noc(C2CCC3(CCN(C(=O)c4cc(C5CC5)on4)CC3)O2)n1 (configuration not stated)
Percent Effect: 7.456

Compound: Cc1csc2c(C3CCCN(C(=O)CCn4ccnc4)C3)nc(C)n12 (configuration not stated)
Percent Effect: 8.14

Compound: CC(C)N(C)C(=O)C1=NOC2(CCN(C(=O)c3ccncc3)C2)C1 (configuration not stated)
Percent Effect: -22.36

Compound: O=C(c1cc2c([nH]c1=O)CCC2)N1CCCCCC1c1ccncc1 (configuration not stated)
Percent Effect: 3.432

Compound: CCCOc1cc(C)ccc1NC(=O)NCCC(=O)N(C)C
Percent Effect: 3.896

Compound: COc1cnc(CSc2nnc(C)s2)cc1OCC(=O)NC1CCCC1
Percent Effect: -2.271

Compound: CC[C@@H]1N(Cc2ccccn2)CCC[C@]12CCC(=O)N2CCOC
Percent Effect: 15.35

Compound: O=C(c1cccnc1Oc1ccc(Cl)cc1)N1CC[C@@H](O)C1
Percent Effect: -3.916

Compound: COc1c(CNCCC(=O)NC2CCCC2)c(C(C)C)nn1C
Percent Effect: 9.703

Compound: Cc1ccccc1CN1CCC2(COCc3cnc(N(C)C)nc32)C1.O=C(O)C(F)(F)F (configuration not stated)
Percent Effect: -5.332

Compound: O=C(O)C(F)(F)F.[H][C@@]12COC[C@@H](CC(=O)N3CCOCC3)[C@]1([H])CN(Cc1ccc(F)cc1)C2
Percent Effect: 10.75

Compound: CCn1cc(NC(=O)CCc2ccc3c(c2)OCCCO3)cn1
Percent Effect: -41.6

Compound: CCOC(=O)N1[C@@H](c2ccco2)[C@@H](C(=O)O)C[C@]12CCCCNC2=O
Percent Effect: -28.07

Compound: CCc1nc(C2CCCN2C(=O)c2ccc3c(c2)nnn3C)no1 (configuration not stated)
Percent Effect: 6.967

Compound: O=c1oc(-c2ccc(F)cc2)nn1CN1CCSCC1
Percent Effect: 3.448

Compound: Cc1ccc(C(=O)N2CCN(Cc3ccccc3)CC2)n1C
Percent Effect: 8.216

Compound: Cc1ccc(S(=O)(=O)N2CCC(c3n[nH]cc3C(=O)N(C)C)CC2)cc1
Percent Effect: -4.412

Compound: COCC1CN(C(=O)Cc2ccc(F)cc2)Cc2ccnn2C1 (configuration not stated)
Percent Effect: 17.34

Compound: O=C(O)C(F)(F)F.O=C(O)C(F)(F)F.[H][C@@]12CCN(CC(=O)N(C)C)[C@@]1([H])CCN2Cc1cc(C)c(C)o1
Percent Effect: -7.699

Compound: COc1ccc(NC(=O)NCc2ccnc(N(C)C)c2)cn1
Percent Effect: -0.09769

Compound: CN(CCCNC(=O)N1CCCC1c1ccsc1)c1ccccn1 (configuration not stated)
Percent Effect: 4.906

Compound: Cc1ccc(NC2CCN(C(=O)c3ccncc3)CC2)nn1
Percent Effect: 10.6

Compound: O=C(NCc1ccccc1)c1nc2c(o1)CN(C(=O)c1cccnc1)C2.O=C(O)C(F)(F)F
Percent Effect: 15.49

Compound: CC(C(=O)N(Cc1ccc(F)cc1)CC(F)(F)F)S(C)(=O)=O (configuration not stated)
Percent Effect: -5.438

Compound: COc1ccccc1NC(=O)C1(c2ccccc2)CCOCC1
Percent Effect: 7.417

Compound: Cn1cnnc1C1CCCN(C(=O)NCc2ccccc2)C1 (configuration not stated)
Percent Effect: -1.384

Compound: O=C(O)C(F)(F)F.O=C(O)C(F)(F)F.[H][C@@]12CCCO[C@]1([H])[C@H](Nc1ccccn1)CN(Cc1scnc1C)C2
Percent Effect: 14.82

Compound: O=C([C@H]1CCCO1)N1CCN(Cc2cccnc2)c2ncccc2C1
Percent Effect: -2.698

Compound: Cc1cnn(CC2CN(CC(=O)Nc3cc(C)no3)CCO2)c1 (configuration not stated)
Percent Effect: 13.91

Compound: Cc1cc(N2CCC3(CCC(=O)N(CC4CC4)C3)CC2)nc(N)n1
Percent Effect: 9.689

Compound: Cn1c(C(=O)N2CCC(C(=O)N3CCCC3)CC2)c(Cl)c2ccccc21
Percent Effect: -5.579

Compound: Cc1nonc1C(=O)N1CCCC(c2ncncc2-c2ccncc2)C1 (configuration not stated)
Percent Effect: -5.421

Compound: O=C(O)C(F)(F)F.[H][C@]12CCN(C(=O)c3ccc(C)o3)C[C@@]1([H])OCCN(C1CCOCC1)C2
Percent Effect: 4.219

Compound: O=C(O)C(F)(F)F.O=C(O)C(F)(F)F.[H][C@@]12CN(CCOC)CCO[C@]1([H])CN(S(=O)(=O)c1cccnc1)C2
Percent Effect: -5.223

Compound: Cc1nc(C(NC(=O)c2cc(C(C)C)[nH]n2)c2ccccc2)n[nH]1 (configuration not stated)
Percent Effect: 1.665

Compound: CC(C)CN1CC2(CCN(C(=O)C3CNC(=O)N3)CC2)CC1=O (configuration not stated)
Percent Effect: -14.36 and -9.386

Compound: CN(c1ccc(F)c(F)c1)S(=O)(=O)c1cc(C(=O)O)cs1
Percent Effect: -0.48

Compound: O=C(O)C(F)(F)F.[H][C@]12C[C@@H](Cn3cncn3)N(C(C)C)[C@@]1([H])CCN(Cc1cccs1)C2
Percent Effect: 3.833

Compound: CCc1nnc2n1CCN(CC(=O)Nc1cc(C)on1)C2
Percent Effect: 13.82

Compound: Cn1cc(-c2cnc(N3CCOCC3)nc2)cc1C(=O)NCCO.O=C(O)C(F)(F)F
Percent Effect: -13.03

Compound: Cn1cc(-c2csc(N3CCOCC3)n2)cn1
Percent Effect: -12.32

Compound: [H][C@]12CN(Cc3cnn(C)c3)C[C@@]1([H])OCCN(C(=O)c1cccn1C)C2
Percent Effect: 9.282

Compound: CCc1ncc(C(=O)N2CCOCC2c2c(C)n[nH]c2C)s1 (configuration not stated)
Percent Effect: -1.288

Compound: CCc1nnc(CN2CCCC(c3cc(C(F)(F)F)[nH]n3)C2)o1 (configuration not stated)
Percent Effect: -20.59

Compound: COc1ccc(C2Nc3cc(Cl)ccc3C3=NCCN32)cc1O (configuration not stated)
Percent Effect: 1.823

Compound: Cn1ccc2cc(CC3COCCN(C(=O)c4cccnc4)C3)ccc21 (configuration not stated)
Percent Effect: 2.343

Compound: O=C(CN1CCCC1Cn1cncn1)NCCc1c(F)cccc1F (configuration not stated)
Percent Effect: 9.209

Compound: [H][C@@]12CN(Cc3ccccc3SC)C[C@]1(C(=O)O)CN(CC1CC1)C2=O
Percent Effect: -19.29

Compound: CN(CCNc1cc(N2CCCC2CO)ncn1)Cc1ccccc1 (configuration not stated)
Percent Effect: -34.21 and -17.04

Compound: CCc1ccc(C(=O)Nc2cccc(CN3CCCC3C(N)=O)c2)cc1 (configuration not stated)
Percent Effect: -39.95

Compound: COCCNC(=O)Nc1ccc(-n2cncn2)c(C(F)(F)F)c1
Percent Effect: 11.75

Compound: CC(C)c1ccc(S(=O)(=O)N2CCCC3(CCCN3S(C)(=O)=O)C2)cc1 (configuration not stated)
Percent Effect: 23.25

Compound: CCN(CC)Cc1cn2c(n1)CN(C1CCOC1)CC2.O=C(O)C(F)(F)F.O=C(O)C(F)(F)F (configuration not stated)
Percent Effect: 14.47

6 of the entries, repeated:

{"compound": "COc1ccc(C2Nc3cc(Cl)ccc3C3=NCCN32)cc1O", "stereo": "configuration not stated", "Percent Effect": 1.823}
{"compound": "COc1c(CNCCC(=O)NC2CCCC2)c(C(C)C)nn1C", "Percent Effect": 9.703}
{"compound": "CC[C@@H]1N(Cc2ccccn2)CCC[C@]12CCC(=O)N2CCOC", "Percent Effect": 15.35}
{"compound": "CN(Cc1ccc(F)cc1)CC1(O)CCN(C(=O)c2cccs2)C1", "stereo": "configuration not stated", "Percent Effect": 6.596}
{"compound": "COCC1CN(C(=O)Cc2ccc(F)cc2)Cc2ccnn2C1", "stereo": "configuration not stated", "Percent Effect": 17.34}
{"compound": "[H][C@]12CN(Cc3cnn(C)c3)C[C@@]1([H])OCCN(C(=O)c1cccn1C)C2", "Percent Effect": 9.282}